Measurements taken from patent US12624025B2, “Inhibitors of SARM1” (DISARM THERAPEUTICS, INC., priority 2019, dated 2026).
The structures given here were assigned with low confidence; some may be wrong.

Chains of the proteins cited; added tags and fusions are not shown. Residues count along the entry.
UniProt Q6SZW1, 409-724 limits assumed: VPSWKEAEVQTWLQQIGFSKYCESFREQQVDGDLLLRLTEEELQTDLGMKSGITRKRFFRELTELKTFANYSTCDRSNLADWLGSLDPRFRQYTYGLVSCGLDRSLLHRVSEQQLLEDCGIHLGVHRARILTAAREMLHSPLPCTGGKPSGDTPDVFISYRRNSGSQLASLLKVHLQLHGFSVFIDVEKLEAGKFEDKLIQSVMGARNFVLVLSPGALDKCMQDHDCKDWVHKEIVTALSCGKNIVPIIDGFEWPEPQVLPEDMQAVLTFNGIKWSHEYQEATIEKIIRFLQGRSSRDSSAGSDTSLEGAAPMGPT

Target: SARM1 SAM-TIR (Homo sapiens, UniProt Q6SZW1)
Assay: SAM-TIR SARM1 IC50 assay (NADase activity, NAD+ cleavage, RapidFire MS readout)
Format: biochemical
Conditions: read-out: SARM1 IC50; SAM-TIR lysate 5 μg/mL, 2 h pre-incubation with compound, 5 μM NAD+, 2 hr room temperature
Description: This Example describes an assay of SAM-TIR NADase activity and use of this assay to measure the efficacy of compounds of Formula I to block SARM1 mediated NAD+ cleavage. This assay is optimized in such a way as to characterize the efficacy of the compounds in Formula I to inhibit SARM1 activity and to calculate an IC50 value for each compound. This assay makes use of a fragment of the SARM1 molecule encompassing the SAM and TIR domains.
NRK1-HEK293T cells were seeded onto 150 cm^2 plates at 20×10^6 cells per plate. The next day, the cells were transfected with 15 μg FCIV-SST (SAM-TIR expression plasmid, SEQ ID NO: 1) using X-TREMEGENE™ 9 DNA Transfection Reagent (Roche product #06365787001).
The cultures were supplemented with 1 mM NR at time of transfection to minimize toxicity from SAM-TIR overexpression. […] Protein concentration was determined by the Bicinchoninic (BCA) method and used to normalize lysate concentrations.
The enzymatic assay was performed in a 384-well polypropylene plate in Dulbecco's PBS buffer in a final assay volume of 20 μL. […] The NAD+ and ADPR concentrations were analyzed by a RapidFire High Throughput Mass Spectrometry System (Agilent Technologies, Santa Clara, CA) using an API4000 triple quadrupole mass spectrometer (AB Sciex Framingham, Mass.).

Structure (SMILES)	IC50 [nM]
N#Cc1c(Nc2ccccc2C(F)(F)F)sn(C2Cc3ccccc3C2)c1=O	< 1000
N#Cc1c(Nc2ccccc2C(F)(F)F)sn(-c2ccc3c(c2)OCC3)c1=O	< 1000
